Source: the supplement of paper PMC3334620
Over roughly 33,000 sequences, “E-score (-0.5 to 0.5)” has its median near -0.0059; the highest 2% begin near 0.26. This is one part of the list.

Biological target: T1, Cin5 (UniProt P40917)
T1 sequence: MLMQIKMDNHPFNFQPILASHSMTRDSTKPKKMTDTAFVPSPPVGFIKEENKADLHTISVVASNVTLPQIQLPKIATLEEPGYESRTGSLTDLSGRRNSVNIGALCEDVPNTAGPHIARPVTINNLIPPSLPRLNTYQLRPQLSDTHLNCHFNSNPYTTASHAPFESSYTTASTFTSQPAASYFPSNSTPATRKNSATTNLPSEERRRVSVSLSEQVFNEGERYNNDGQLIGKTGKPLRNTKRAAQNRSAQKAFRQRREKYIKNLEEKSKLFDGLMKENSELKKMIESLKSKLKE
Assay: PBM E-score (8-mer binding enrichment) (E-score (-0.5 to 0.5)); higher = stronger / more preferred TF binding
Conditions: protein concentration: 100 nM; construct: GST-full length
Method in brief: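 Yeast transcription factors carrying a GST tag, as full-length proteins or DNA-binding domains, were produced by PURExpress in vitro transcription/translation. About 100-200 nM protein was applied to universal all-10-mer Agilent arrays, double-stranded by primer extension on fresh or once-stripped slides. Bound protein was detected with fluorescent anti-GST, and scans were normalised with masliner. The Universal PBM Analysis Suite gave each ungapped eight-base word, pooled with its reverse complement, an E-score, a modified Wilcoxon-Mann-Whitney statistic.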

First: CGGCGAAG
Second: GTATTGAA
The “PBM E-score” value of the first is lower: -0.133 for the first, 0.222 for the second.

Going from AGTTCTCA to TATACCAA, the “PBM E-score” value rises from 0.0601 to 0.11.

First: AAAAAATA
Second: TCTGGCAA
The “PBM E-score” value of the first is higher: 0.213 for the first, -0.0729 for the second.

Compared with CGGGGCAC, CCGGAATC is higher in “PBM E-score” value: -0.242 for the first, 0.155 for the second.

First: CTACGGCC
Second: CGTTCCCC
The “PBM E-score” value of the first is lower: -0.214 for the first, -0.112 for the second.

Compared with TGAATGCA, GGTAACGA is higher in “PBM E-score” value: 0.0583 for the first, 0.114 for the second.

Compared with ACGTATGA, ACGATTTA is higher in “PBM E-score” value: 0.162 for the first, 0.244 for the second.

Compared with GGAATCCA, AATATCAT is higher in “PBM E-score” value: 0.0132 for the first, 0.241 for the second.

Compared with TCCACAAA, ACTCAACT is higher in “PBM E-score” value: 0.058 for the first, 0.0921 for the second.

Compared with AATCCTAA, GATTTTCA is higher in “PBM E-score” value: 0.0229 for the first, 0.0254 for the second.

Going from AGACAGTA to AGGGGTAG, the “PBM E-score” value falls from 0.105 to -0.0974.

First: GAAAGCTA
Second: AACGTCTG
The “PBM E-score” value of the first is lower: -0.0298 for the first, 0.0854 for the second.

Going from ACCCTACA to CATTCGAC, the “PBM E-score” value falls from 0.109 to 0.0347.

First: CCGCAGGC
Second: AATTGGGC
The “PBM E-score” value of the first is lower: -0.106 for the first, 0.0334 for the second.

Going from CCTAGTGC to AAGCAGAA, the “PBM E-score” value rises from -0.0298 to 0.261.

Going from ACCCCTCC to AAGCCACT, the “PBM E-score” value falls from -0.104 to -0.133.

First: CTAGCAAA
Second: AAGGAGAT
The “PBM E-score” value of the first is lower: 0.0262 for the first, 0.0365 for the second.

First: ACGAGACT
Second: ATTAGGGG
The “PBM E-score” value of the first is lower: -0.132 for the first, -0.0343 for the second.

First: CGCCCCCA
Second: ATAGCATA
The “PBM E-score” value of the first is lower: -0.325 for the first, 0.123 for the second.

First: GCTACTAA
Second: AACGCGGA
The “PBM E-score” value of the first is lower: -0.0132 for the first, 0.0542 for the second.

Going from GGAGCCAA to GCCGGGGA, the “PBM E-score” value falls from -0.0883 to -0.142.

First: ACCCGAAC
Second: AGGGGTTG
The “PBM E-score” value of the first is lower: -0.0614 for the first, 0.0241 for the second.

Compared with ATGGTACA, TGCGACAA is lower in “PBM E-score” value: 0.1 for the first, 0.00345 for the second.

First: GAAGAAGC
Second: CCGCCAGG
The “PBM E-score” value of the first is lower: -0.123 for the first, -0.104 for the second.

First: CAGTGAGC
Second: TCCTCCCA
The “PBM E-score” value of the first is higher: -0.0152 for the first, -0.139 for the second.

Compared with AGGAAGGG, AATCTTGG is higher in “PBM E-score” value: -0.311 for the first, 0.122 for the second.

First: CGGCCGTA
Second: CTCTAGCA
The “PBM E-score” value of the first is higher: -0.0263 for the first, -0.161 for the second.

Going from AAAAAAAA to ACTGTAGC, the “PBM E-score” value falls from 0.215 to -0.0588.

First: TAGACCCA
Second: AGGTACAC
The “PBM E-score” value of the first is higher: 0.102 for the first, -0.0546 for the second.

Going from CACCCACA to CCACGGGA, the “PBM E-score” value falls from 0.047 to -0.116.

Going from GATTATCC to CAGCGGGG, the “PBM E-score” value falls from 0.0776 to -0.0419.

Going from GATACAAA to CATGGTAG, the “PBM E-score” value falls from 0.173 to -0.0838.

First: AAAGACGT
Second: AAAACGGA
The “PBM E-score” value of the first is higher: 0.109 for the first, 0.0411 for the second.

Going from CGTATCAC to CATTGTAC, the “PBM E-score” value falls from 0.0777 to -0.0235.

Going from GTTTCCTA to ACAGCAAC, the “PBM E-score” value rises from 0.089 to 0.107.

Going from ATCCTAAG to ACTTCAGC, the “PBM E-score” value falls from 0.0186 to -0.104.

Going from GGATTACC to TGTGACAA, the “PBM E-score” value falls from 0.131 to -0.0449.

First: GATAGGAA
Second: CTTACCCA
The “PBM E-score” value of the first is lower: 0.0166 for the first, 0.0832 for the second.

First: TTCCAGAA
Second: CTGCAATA
The “PBM E-score” value of the first is lower: 0.0375 for the first, 0.135 for the second.

Compared with GAGATACA, AGGATCAG is lower in “PBM E-score” value: 0.199 for the first, -0.192 for the second.

Compared with AGAACGCT, CCAATACG is higher in “PBM E-score” value: -0.213 for the first, -0.144 for the second.

First: GACACGGA
Second: GACCTACA
The “PBM E-score” value of the first is lower: -0.0636 for the first, 0.0137 for the second.

Compared with AAGAAATT, AAGCGTGG is lower in “PBM E-score” value: 0.0841 for the first, -0.0866 for the second.

First: GCTCTTAC
Second: CCGCGGTA
The “PBM E-score” value of the first is lower: 0.021 for the first, 0.131 for the second.

First: CAACGAGA
Second: TGCTCAAA
The “PBM E-score” value of the first is higher: 0.108 for the first, -0.0568 for the second.

Going from GAGGGTCA to GTACATGA, the “PBM E-score” value rises from -0.274 to 0.06.

First: TCTAGTCA
Second: CTGGCATA
The “PBM E-score” value of the first is lower: -0.0366 for the first, 0.0375 for the second.

Compared with CAACGAGG, CATAAGCC is higher in “PBM E-score” value: 0.0572 for the first, 0.245 for the second.

Going from CACCACGC to CGTATGCA, the “PBM E-score” value rises from -0.254 to 0.162.

First: GAAAGCTC
Second: CAGCCAGA
The “PBM E-score” value of the first is higher: -0.102 for the first, -0.128 for the second.

Going from AGAGAGGC to AAAAGAGT, the “PBM E-score” value rises from -0.288 to -0.0541.

Compared with AATTGTCA, CGGGGCCC is lower in “PBM E-score” value: 0.137 for the first, 0.0644 for the second.

First: CAATATTG
Second: AGATTCAA
The “PBM E-score” value of the first is higher: 0.205 for the first, 0.0954 for the second.

First: AACATGCT
Second: GTAACGAA
The “PBM E-score” value of the first is lower: 0.0355 for the first, 0.0747 for the second.

Going from TAGACAGA to ACCGATTG, the “PBM E-score” value falls from 0.0775 to -0.0313.

Compared with CCCATACG, AAGCATAG is higher in “PBM E-score” value: -0.0527 for the first, 0.015 for the second.

Going from ACAGTTGG to GATGGAAC, the “PBM E-score” value falls from 0.016 to 0.0146.

First: AGAGTTAC
Second: CATTATAA
The “PBM E-score” value of the first is lower: -0.0307 for the first, 0.0881 for the second.

First: GCCTAGTA
Second: AATGTTTG
The “PBM E-score” value of the first is lower: -0.00713 for the first, 0.0818 for the second.

Compared with AATGCTCT, CCCTCCTA is lower in “PBM E-score” value: -0.0108 for the first, -0.18 for the second.

First: GCAAATAC
Second: GACTGAGC
The “PBM E-score” value of the first is higher: 0.021 for the first, -0.252 for the second.

Compared with CATCATAC, GGGGTCGA is lower in “PBM E-score” value: 0.0705 for the first, -0.091 for the second.

Going from ATTATCGA to ACGAAGCA, the “PBM E-score” value falls from 0.105 to 0.077.

Compared with ATATCGAG, GAGGTCAA is higher in “PBM E-score” value: 0.00944 for the first, 0.025 for the second.

First: GCGGTCCA
Second: AGCGTAGG
The “PBM E-score” value of the first is lower: -0.295 for the first, -0.0398 for the second.

Going from GAAGAGGC to ATCCAACC, the “PBM E-score” value rises from -0.146 to 0.0673.

Going from CGTCCGGC to AAACCGGT, the “PBM E-score” value falls from -0.0355 to -0.0834.

Going from CCGGTTCA to GGCGTGAC, the “PBM E-score” value rises from -0.18 to -0.163.

Compared with GATGCCGA, GCTGGAGA is lower in “PBM E-score” value: 0.0556 for the first, -0.241 for the second.

First: AACATCCT
Second: GCCGGGTA
The “PBM E-score” value of the first is higher: 0.0581 for the first, -0.235 for the second.

Compared with AGACGGCT, GTATAACA is higher in “PBM E-score” value: -0.178 for the first, 0.126 for the second.

First: ACACTTGC
Second: GCTGAGAC
The “PBM E-score” value of the first is higher: 0.125 for the first, 0.0196 for the second.

Going from AGGCCTAT to GCTAATGA, the “PBM E-score” value rises from -0.182 to 0.021.

First: CGAGCTAA
Second: GATGCAAA
The “PBM E-score” value of the first is lower: 0.0146 for the first, 0.0951 for the second.

Going from CCTTAGAA to GTTCACAA, the “PBM E-score” value rises from -0.0933 to 0.00137.

First: CTTGATCC
Second: AAATGGTA
The “PBM E-score” value of the first is lower: 0.00298 for the first, 0.268 for the second.

Going from AAAATGCC to CTAGCATA, the “PBM E-score” value falls from 0.0011 to -0.039.

Compared with GATAACTA, CTGAGCGC is lower in “PBM E-score” value: 0.214 for the first, -0.19 for the second.

Compared with AAGGAGTC, AACCCGTA is higher in “PBM E-score” value: -0.275 for the first, 0.0145 for the second.

Compared with CGGAAGGA, ACTGATAC is higher in “PBM E-score” value: -0.164 for the first, -0.00272 for the second.

First: AAATCTGC
Second: GCTCGCCC
The “PBM E-score” value of the first is higher: 0.043 for the first, -0.128 for the second.

Compared with ATTGACAC, ATGGTTCA is higher in “PBM E-score” value: -0.0732 for the first, 0.00143 for the second.

Going from CAGATAGC to GGCCGGGA, the “PBM E-score” value falls from -0.0791 to -0.1.

Compared with TACGTCTA, AGGTCGTC is lower in “PBM E-score” value: 0.0247 for the first, -0.0992 for the second.

First: AAGTACTT
Second: AATCACAT
The “PBM E-score” value of the first is lower: 0.00649 for the first, 0.19 for the second.

Going from CGACACAA to GCTGCGAA, the “PBM E-score” value rises from -0.0261 to 0.0387.
